PubChem BioAssay AID504467 (National Center for Advancing Translational Sciences (NCATS), 2011)
Screen size: about 330,000 compounds; about 7,700 (2.3%) were called active. Inconclusive results, whose numbers are uncertain, are shown with a selection of clear calls. Calls come from the whole dose curve; as a rule, active = well fitted inhibition curve with a large enough effect; inconclusive = small, poorly fitted or top-dose-only effect, or effect the other way; inactive = flat fitted curve, though single readings scatter. Potencies of inconclusive entries are doubtful fits and often do not repeat.

Experiment: qHTS screen for small molecules that inhibit ELG1-dependent DNA repair in human embryonic kidney (HEK293T) cells expressing luciferase-tagged ELG1; note: nearly all actives have a fitted effect of over 55% in size
Settings: HEK293T ELG1-luciferase reporter, luminescence, 16 h, DNA damage induced by 5-fluorouridine; series mostly up to 46.1 µM
Summary of the method: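 DMSO vehicle served as the neutral condition. Each well held 2,000 cells given 5-fluorouridine plus compound; after 16 hr at 37 °C/5% CO2, ONE-Glo was added and luciferase measured 30 min later.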
Potency is the fitted concentration of half-maximal effect.

Row | Structure (SMILES) | Potency
1 | Cc1ccccc1NC(=O)COc1ccc(Br)cc1C | inconclusive: 16.4 µM [activator, partial curve]
2 | c1ccc2c(c1)CCN(CCCNc1nc3ccccc3n3cnnc13)C2 | inconclusive: 14.6 µM [activator, partial curve, poor fit]
3 | C[C@H]1CN([C@@H](C)CO)C(=O)c2cc(NC(=O)C3CCCCC3)ccc2O[C@H]1CN(C)S(=O)(=O)c1ccccc1 | inconclusive: 1.16 µM [inhibitor, full curve]
4 | CCSc1nc(-c2ccc(OC)cc2)cc(-c2ccccc2)c1C#N | inactive
5 | COCCCNc1nc(N)c([N+](=O)[O-])c(Nc2cc(OC)ccc2OC)n1 | active: 1.83 µM
6 | CCn1cc(C(=O)NCCCN(CC(C)C)CC(C)C)c(=O)c2cc(S(=O)(=O)N3CCOCC3)ccc21 | inconclusive: 25.9 µM [activator, single point]
7 | CCCC/C(O)=C1\C(=O)CCCC1=NCCc1c(C)[nH]c2ccccc12 | inconclusive: 18.3 µM [inhibitor, single point]
8 | CCCCCCCCCCCCN1C(=O)CSC1c1cccnc1 (stereo not given) | inconclusive: 29.1 µM [inhibitor, single point]
9 | Cc1ccc(OCC(=O)N/N=C\c2ccc(O)c([N+](=O)[O-])c2)c([N+](=O)[O-])c1 | inactive
10 | COc1ccccc1N=Cc1c(C)c(C#N)c2[nH]c3ccccc3n2c1=O | inactive
11 | O=C(C1=C[C@H](c2coc3ccccc3c2=O)C[C@H](OCCCCO)O1)N1CCN(Cc2ccccc2)CC1 | inactive
12 | CCC(C)NC(=O)c1nn(Cc2ccccc2)c(=O)c2ccccc12 (stereo not given) | inactive
13 | Cc1ccc([C@@H]2CC=C(C(=O)O)[C@H](c3ccc(C(C)(C)C)cc3)N2S(=O)(=O)c2ccc(C)cc2)cc1 | inconclusive: 23.1 µM [inhibitor, partial curve, poor fit]
14 | O=C(Nc1ccc(S(=O)(=O)N2CCCC2)cc1)c1ccc([N+](=O)[O-])cc1 | active: 9.2 µM
15 | O=C(Nc1ccc(-c2nnco2)cc1)c1ccccc1 | inconclusive: 10.3 µM [activator, partial curve, poor fit]
16 | CCc1ccc(NC(=O)CSc2nnnn2C)cc1 | inconclusive: 14.6 µM [activator, partial curve]
17 | CC(=O)Nc1ccc(S(=O)(=O)N2CCSc3ccccc32)cc1 | inconclusive: 4.11 µM [inhibitor, full curve, poor fit]
18 | O=C(Nc1nc2ccc([N+](=O)[O-])cc2s1)C1CCCO1 (stereo not given) | inconclusive: 7.3 µM [activator, partial curve]
19 | CCN1CCN(c2cc(C)c3cc(NC(=S)N4CCOCC4)ccc3n2)CC1 | inconclusive: 14.6 µM [inhibitor, partial curve]
20 | CCOc1ccc(S(=O)(=O)Nc2cccc(C(=O)N3CCN(c4ccccc4O)CC3)c2)cc1 | inconclusive: 29.1 µM [inhibitor, single point]
21 | COc1ccc(CNC(=O)Cc2csc(NC(=O)Nc3ccccc3OC)n2)cc1 | inconclusive: 25.9 µM [inhibitor, single point]
22 | CCC(C)NC(=S)N1CCN(C(c2ccccc2)c2ccccc2)CC1 (stereo not given) | inactive
23 | Cc1ccc(S(=O)(=O)NC(=O)C2CCCCC2)cc1 | inactive

Row | Structure (SMILES) | Potency
24 | CC(Sc1ncc(C#N)c(N)n1)C(=O)Nc1ccccc1 (stereo not given) | inactive
25 | COc1cc2c(cc1NC(=O)CSCC(=O)O)oc1ccccc12 | inactive
26 | CN(c1cccc(Cl)c1)S(=O)(=O)c1cccc(C(=O)Nc2nc3ccccc3[nH]2)c1 | inconclusive: 20.6 µM [inhibitor, single point]
27 | CCC(=O)N(Cc1cc(=O)[nH]c2ccccc12)c1ccccc1OC | inactive
28 | CC1(C)C[C@@H]2C[C@@](C)(CN2C(=O)c2ccccc2)C1 | inactive
29 | CCc1cc2c(=O)n(Cc3ccco3)c(SCc3c(C)noc3C)nc2s1 | inconclusive: 14.6 µM [inhibitor, partial curve, poor fit]
30 | CCCCc1ccc(NC(=O)CSc2nc3ncccc3[nH]2)cc1 | inactive
31 | CC(C)(C)NC(=O)NC(=O)CN1CCN(c2ccc(O)cc2)CC1 | inconclusive: 16.4 µM [inhibitor, partial curve]
32 | COc1ccc(CC(=O)NCCc2ccc(Cl)cc2Cl)cc1 | inactive
33 | O=C(Nc1nnc(S(=O)(=O)N2CCOCC2)s1)c1ccccc1 | inconclusive: 25.9 µM [activator, single point]
34 | N#Cc1nc(Cc2ccccc2)oc1N1CCCC1 | inconclusive: 20.6 µM [activator, partial curve, poor fit]
35 | CCOC(=O)c1ccc(S(=O)(=O)N2CCN(c3ccccn3)CC2)cc1 | inconclusive: 9.2 µM [inhibitor, partial curve, poor fit]
36 | Cc1ccc(S(=O)(=O)NCC(c2cccnc2)N2CCc3ccccc32)cc1 (stereo not given) | inactive
37 | Cc1ccc2c(c1)N(CC(=O)NCCc1ccccc1)C(=O)c1cccnc1O2 | inactive
38 | Cc1cc(OCc2cc(C(=O)N(C)Cc3ccccn3)no2)cc(C)c1Cl | inconclusive: 18.3 µM [activator, partial curve]
39 | CCc1ccc(C2c3[nH]c4ccccc4c3CCN2C(=O)c2ccc(=O)n(C)n2)cc1 (stereo not given) | inconclusive: 16.4 µM [inhibitor, single point]
40 | COc1ccc2c(c1)-c1nc(/N=C/c3c(O)ccc4ccccc34)sc1CC2 | inactive
41 | CC(C)NC(=O)COCc1cc(-c2ccc3c(c2)OCO3)on1 | inconclusive: 20.6 µM [activator, partial curve]
42 | COc1cccc(-c2nc(Oc3cc(C)cc(C)c3)c3ccccc3n2)c1O | inconclusive: 29.1 µM [activator, single point]
43 | COc1cc2c(cc1NC(=O)CSc1nnc(Cc3cccs3)n1Cc1ccco1)oc1ccccc12 | active: 23.1 µM
44 | COc1cccc2cc(-c3ccnc(=S)[nH]3)oc12 | inconclusive: 10.3 µM [activator, partial curve]
45 | O=C(CSc1nc(-c2ccco2)cc(C(F)(F)F)n1)N1CCN(c2cccc(Cl)c2)CC1 | inconclusive: 29.1 µM [inhibitor, single point]

An excerpt from above in order of length of the SMILES, largest number first:
Row | Structure (SMILES) | Potency
42 | COc1cccc(-c2nc(Oc3cc(C)cc(C)c3)c3ccccc3n2)c1O | inconclusive: 29.1 µM [activator, single point]
41 | CC(C)NC(=O)COCc1cc(-c2ccc3c(c2)OCO3)on1 | inconclusive: 20.6 µM [activator, partial curve]
24 | CC(Sc1ncc(C#N)c(N)n1)C(=O)Nc1ccccc1 (stereo not given) | inactive
